Data published in PubChem BioAssay AID493174 (National Center for Advancing Translational Sciences (NCATS), 2011).
The inconclusive results got no clear call from the source. Potencies beside an inconclusive call are fits to weak or partial responses and may not hold up.

Experiment: Confirmatory Assay for General miRNAs Modulators and/or Inhibitors/Activators of miR-21: second round cherrypicks
Conditions: HeLa miR-21 FLuc reporter, luciferase luminescence, 48 h; series mostly up to 38.3 µM; active = well fitted inhibition curve with a large enough effect; inconclusive = small, poorly fitted or top-dose-only effect; inactive = flat fitted curve, though single readings scatter
Outline: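 HeLa cells carry a CMV-FLuc reporter with a downstream miR-21 binding site and express miR-21 endogenously. They were seeded at 2000 cells/well and treated 48 h with a titration (up to about 40 uM). Luciferase luminescence was read after 15 min lysis.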

Potency, inconclusive:
O=C(NCc1cccc(F)c1)c1ccc2nc(N3CCCCC3)sc2c1 5.65 µM [inhibitor, full curve]
CC(=O)c1ccc(NC(=O)c2ncn(-c3ccccc3)n2)cc1 14.2 µM [inhibitor, partial curve]
CC(c1ccccn1)N(C)C(=O)c1ccc2nc(Cc3cccc(Cl)c3)oc2c1 (stereo not given) 7.98 µM [inhibitor, full curve]
CCn1c2ccccc2c2cc(NC(=O)N3CCOCC3)ccc21 15.9 µM [inhibitor, partial curve]
Cc1ccc(CNC(=O)Cc2csc3ccccc23)cc1 25.2 µM [inhibitor, partial curve]
